PubChem BioAssay AID504764, Drosophila RNAi Screening Center – 2011
In all, the deposit lists about 22,000 reagents; this is an unselected part of those with a known target gene and a result. Over the whole deposit, 403 (1.9%) are marked active. 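Unnormalised raw counts per well; ratio z-scores behind the hit calls and whether each hit raises or lowers signal are not deposited.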 Names joined by + are all predicted targets of the reagent. Reagent sequences are not shown. Not stated in the record: the amount of reagent.

- Assay: 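Genome-wide screen for regulators of Notch-driven gene expression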 (primary screen)
- Cell system: Drosophila Kc167 cells
- Reagent: long dsRNA against Drosophila genes
- Duration: about 5 days (4 days dsRNA, then 24 h after transfection)
- Conditions: transfection of constitutively active membrane-tethered Notch lacking the extracellular domain, read 24 h later
- Measured: 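Firefly luciferase from an E(spl)m3 reporter with active Notch, plus control-promoter and uninduced reporter wells for normalisation; unnormalised counts, duplicate wells a and b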
- Direction: induced reporter light, run 1, well a and induced reporter light, run 1, well b: higher = more light from the Notch target reporter with active Notch; control promoter light, run 1, well a and control promoter light, run 1, well b: higher = more light from the viral control promoter (cell number, transfection, viability); uninduced reporter light, run 1, well a: higher = more light from the Notch target reporter without active Notch
- Rule for the call: 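Hit if the duplicate-averaged log2 ratio of induced to control-promoter light gives a plate-wise z beyond ±2, or induced to uninduced beyond ±1.8; weak-control or discordant-duplicate wells dropped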
- Calls: active = modifier hit (raised or lowered Notch signal); inactive = not a hit

target | DRSC id | induced reporter light, run 1, well a | induced reporter light, run 1, well b | control promoter light, run 1, well a | control promoter light, run 1, well b | uninduced reporter light, run 1, well a | activity call
Obp19c | DRSC20528 | 1.31e5 | 1.29e5 | 1.67e5 | 1.74e5 | 14665 | inactive
CG14641 | DRSC12227 | 61880 | 58830 | 27335 | 28665 | 5255 | inactive
Liprin-beta | DRSC09795 | 1.02e5 | 95865 | 1.33e5 | 98050 | 5210 | inactive
CG13917 | DRSC08386 | 91125 | 1.11e5 | 1.89e5 | 1.94e5 | 8980 | inactive
loj | DRSC09791 | 1.17e5 | 1.07e5 | 73100 | 37435 | 10950 | inactive
CecB | DRSC16605 | 1.66e5 | 1.39e5 | 1.94e5 | 1.89e5 | 12950 | inactive
NimB2 | DRSC22645 | – | – | – | – | – | inactive
CG15118 | DRSC06540 | 1.45e5 | 1.67e5 | 2.40e5 | 3.38e5 | 12360 | inactive
NaPi-III | DRSC10893 | 1.64e5 | 1.61e5 | 97815 | 45045 | 12015 | inactive
NaPi-III | DRSC10894 | 15642 | 15200 | 14910 | 19875 | 3420 | inactive
Daao1 | DRSC06131 | 1.76e5 | 1.59e5 | 2.02e5 | 2.05e5 | 13320 | inactive
CG33012 | DRSC06287 | 1.02e5 | 87935 | 1.41e5 | 1.27e5 | 8840 | inactive
CG33012 | DRSC06288 | 86470 | 93435 | 1.08e5 | 1.20e5 | 7825 | inactive
CG17195 | DRSC15188 | 1.86e5 | 1.84e5 | 2.40e5 | 2.21e5 | 13650 | inactive
LSm3 | DRSC15920 | 1.42e5 | 1.29e5 | 1.63e5 | 1.80e5 | 12460 | inactive
CG7341 | DRSC10818 | 1.29e5 | 1.15e5 | 66640 | 75725 | 8520 | inactive
CG43317 | DRSC15000 | 2.63e5 | 2.71e5 | 2.45e5 | 2.54e5 | 19360 | inactive
Oat | DRSC11043 | 1.28e5 | 1.21e5 | 96370 | 89125 | 7555 | inactive
robl37BC | DRSC02472 | 1.43e5 | 73390 | 86945 | 78575 | 5455 | inactive
coil | DRSC07242 | 1.84e5 | 1.70e5 | 1.53e5 | 1.76e5 | 14130 | inactive
Tis11 | DRSC20293 | 63675 | 43145 | 62330 | 57255 | 10260 | inactive
CG34165 | DRSC01970 | 17450 | 17870 | 21675 | 15085 | 4915 | inactive
Rtf1 | DRSC04085 | 2.00e5 | 1.86e5 | 1.16e5 | 1.41e5 | 16125 | inactive
CG12360 (retired record) | DRSC14505 | 2.23e5 | 2.00e5 | 2.02e5 | 2.15e5 | 15475 | inactive

7 of these entries, reformatted.
target,DRSC id,"induced reporter light, run 1, well a","induced reporter light, run 1, well b","control promoter light, run 1, well a","control promoter light, run 1, well b","uninduced reporter light, run 1, well a",activity call
Oat,DRSC11043,1.28e5,1.21e5,96370,89125,7555,inactive
robl37BC,DRSC02472,1.43e5,73390,86945,78575,5455,inactive
coil,DRSC07242,1.84e5,1.70e5,1.53e5,1.76e5,14130,inactive
Tis11,DRSC20293,63675,43145,62330,57255,10260,inactive
CG34165,DRSC01970,17450,17870,21675,15085,4915,inactive
Rtf1,DRSC04085,2.00e5,1.86e5,1.16e5,1.41e5,16125,inactive
CG12360 (retired record),DRSC14505,2.23e5,2.00e5,2.02e5,2.15e5,15475,inactive

More results follow:
target | DRSC id | induced reporter light, run 1, well a | induced reporter light, run 1, well b | control promoter light, run 1, well a | control promoter light, run 1, well b | uninduced reporter light, run 1, well a | activity call
CG13359 | DRSC18539 | 94750 | 92970 | 1.71e5 | 1.44e5 | 6945 | inactive
flap | DRSC03918 | 94070 | 71960 | 79690 | 72605 | 6915 | inactive
flap | DRSC04087 | 1.78e5 | 1.88e5 | 1.69e5 | 1.41e5 | 13025 | inactive
CG12991 | DRSC19511 | 98895 | 86015 | 1.13e5 | 89500 | 12680 | inactive
Neurochondrin | DRSC12580 | 1.21e5 | 1.08e5 | 78880 | 85790 | 10475 | inactive
REPTOR | DRSC14626 | 1.25e5 | 1.46e5 | 94345 | 96785 | 10940 | active
CG15891 + CG15892 | DRSC18095 | 2.34e5 | 2.35e5 | 3.21e5 | 3.29e5 | 17950 | inactive
CG15891 + CG15892 | DRSC18096 | 1.54e5 | 1.89e5 | 2.39e5 | 2.87e5 | 11165 | inactive
CG17786 | DRSC15270 | 1.60e5 | 1.44e5 | 2.02e5 | 2.36e5 | 15255 | inactive
CG14102 | DRSC10103 | 1.20e5 | 1.20e5 | 1.21e5 | 97830 | 14595 | inactive
CG7335 | DRSC10816 | 1.68e5 | 1.31e5 | 1.40e5 | 1.26e5 | 9190 | inactive
TTLL1A | DRSC20121 | 1.20e5 | 1.22e5 | 91650 | 47070 | 8685 | inactive
Pask | DRSC04337 | 1.90e5 | 1.93e5 | 1.83e5 | 1.84e5 | 15785 | inactive
Sytbeta | DRSC10009 | 1.42e5 | 1.68e5 | 1.80e5 | 1.55e5 | 10765 | inactive
Sytbeta | DRSC10351 | 1.81e5 | 2.03e5 | 2.54e5 | 2.41e5 | 9140 | inactive
CG10232 | DRSC14218 | 1.69e5 | 1.88e5 | 1.62e5 | 1.56e5 | 15295 | inactive
CG7548 | DRSC10874 | 1.85e5 | 2.00e5 | 1.97e5 | 1.84e5 | 10115 | inactive
dpr10 | DRSC09015 | 2.25e5 | 2.28e5 | 1.93e5 | 1.72e5 | 14360 | inactive
dpr10 | DRSC09018 | 2.45e5 | 1.96e5 | 2.54e5 | 2.32e5 | 11785 | inactive
dpr10 | DRSC10159 | 90670 | 95680 | 1.58e5 | 1.36e5 | 7745 | inactive
dpr10 | DRSC10160 | 1.62e5 | 1.16e5 | 1.70e5 | 1.49e5 | 8025 | inactive
CG10311 | DRSC14228 | 1.90e5 | 1.98e5 | 1.76e5 | 1.82e5 | 15175 | inactive
CG42258 | DRSC19741 | 67855 | 72165 | 89115 | 1.04e5 | 5380 | inactive
CG42258 | DRSC19783 | 10360 | 7860 | 9110 | 6755 | 3035 | inactive
CG13056 | DRSC09937 | 1.84e5 | 1.83e5 | 2.30e5 | 1.67e5 | 7330 | inactive
CG2915 | DRSC06842 | 1.40e5 | 1.31e5 | 1.45e5 | 1.22e5 | 11700 | inactive
